Some peptides are written in HELM: one residue between dots, names in brackets for other building blocks, links after the first $. Bridge positions count the residues as written; N and C are the ends.
Test: general procedure: Fmoc solid-phase peptide synthesis; 2-chlorotrityl resin; 2-(6-chloro-1H-benzo-triazol-1-yl)-1,1,3,3-tetramethylaminium hexafluorophosphat
Settings: whole synthesis, 215 nm

Substance	final HPLC purity
PEPTIDE1{C.Y.G.G.F.L.R.R.C.I.R.P.K.L.K}$PEPTIDE1,PEPTIDE1,1:R1-15:R2|PEPTIDE1,PEPTIDE1,1:R3-9:R3$$$V2.0	>95%

Same assay, conditions: whole synthesis, RP-HPLC (SFTI-1, helianorphin 1-4 and 19) or RP-UPLC (helianorphin 5-18), automatic peak integration

Substance	final HPLC purity
PEPTIDE1{C.T.K.S.I.P.P.I.C.F.P.D.G.R}$PEPTIDE1,PEPTIDE1,1:R1-14:R2|PEPTIDE1,PEPTIDE1,1:R3-9:R3$$$V2.0	100.0%
PEPTIDE1{C.Y.G.G.F.L.R.R.C.I.R.P.K.L.K}$PEPTIDE1,PEPTIDE1,1:R1-15:R2|PEPTIDE1,PEPTIDE1,1:R3-9:R3$$$V2.0	99.9%
c-CTffbrPICFPDGR	100.0%
c-CTfflkPICFPDGR	94.2%
cyclo(CFPDGRCTYGGFLR) (disulfide 1-7; SMILES CC(C)C[C@@H]1NC(=O)[C@H](Cc2ccccc2)NC(=O)CNC(=O)CNC(=O)[C@H](Cc2ccc(O)cc2)NC(=O)[C@H]([C@@H](C)O)NC(=O)[C@@H]2CSSC[C@H](NC(=O)[C@H](CCCNC(=N)N)NC1=O)C(=O)N[C@@H](Cc1ccccc1)C(=O)N1CCC[C@H]1C(=O)N[C@@H](CC(=O)O)C(=O)NCC(=O)N[C@@H](CCCNC(=N)N)C(=O)N2)	99.3%
cyclo(CFPDGRCYGGFLRI) (disulfide 1-7; SMILES CC[C@H](C)[C@@H]1NC(=O)[C@H](CCCNC(=N)N)NC(=O)[C@H](CC(C)C)NC(=O)[C@H](Cc2ccccc2)NC(=O)CNC(=O)CNC(=O)[C@H](Cc2ccc(O)cc2)NC(=O)[C@@H]2CSSC[C@H](NC1=O)C(=O)N[C@@H](Cc1ccccc1)C(=O)N1CCC[C@H]1C(=O)N[C@@H](CC(=O)O)C(=O)NCC(=O)N[C@@H](CCCNC(=N)N)C(=O)N2)	99.3%
cyclo(CRIRPKLKCTYGGFLR) (disulfide 1-9; SMILES CC[C@H](C)[C@@H]1NC(=O)[C@H](CCCNC(=N)N)NC(=O)[C@@H]2CSSC[C@H](NC(=O)[C@H](CCCCN)NC(=O)[C@H](CC(C)C)NC(=O)[C@H](CCCCN)NC(=O)[C@@H]3CCCN3C(=O)[C@H](CCCNC(=N)N)NC1=O)C(=O)N[C@@H]([C@@H](C)O)C(=O)N[C@@H](Cc1ccc(O)cc1)C(=O)NCC(=O)NCC(=O)N[C@@H](Cc1ccccc1)C(=O)N[C@@H](CC(C)C)C(=O)N[C@@H](CCCNC(=N)N)C(=O)N2)	99.1%
cyclo(CTKSIPPICYGGFLRRI) (disulfide 1-9; SMILES CC[C@H](C)[C@@H]1NC(=O)[C@H](CCCNC(=N)N)NC(=O)[C@H](CCCNC(=N)N)NC(=O)[C@H](CC(C)C)NC(=O)[C@H](Cc2ccccc2)NC(=O)CNC(=O)CNC(=O)[C@H](Cc2ccc(O)cc2)NC(=O)[C@@H]2CSSC[C@H](NC1=O)C(=O)N[C@@H]([C@@H](C)O)C(=O)N[C@@H](CCCCN)C(=O)N[C@@H](CO)C(=O)N[C@@H]([C@@H](C)CC)C(=O)N1CCC[C@H]1C(=O)N1CCC[C@H]1C(=O)N[C@@H]([C@@H](C)CC)C(=O)N2)	96.0%
cyclo(CTKSIPPICYGGFLRRIRPKLK) (disulfide 1-9; SMILES CC[C@H](C)[C@@H]1NC(=O)[C@H](CCCNC(=N)N)NC(=O)[C@H](CCCNC(=N)N)NC(=O)[C@H](CC(C)C)NC(=O)[C@H](Cc2ccccc2)NC(=O)CNC(=O)CNC(=O)[C@H](Cc2ccc(O)cc2)NC(=O)[C@@H]2CSSC[C@H](NC(=O)[C@H](CCCCN)NC(=O)[C@H](CC(C)C)NC(=O)[C@H](CCCCN)NC(=O)[C@@H]3CCCN3C(=O)[C@H](CCCNC(=N)N)NC1=O)C(=O)N[C@@H]([C@@H](C)O)C(=O)N[C@@H](CCCCN)C(=O)N[C@@H](CO)C(=O)N[C@@H]([C@@H](C)CC)C(=O)N1CCC[C@H]1C(=O)N1CCC[C@H]1C(=O)N[C@@H]([C@@H](C)CC)C(=O)N2)	99.7%

Same assay, conditions: whole synthesis, RP-HPLC (SFTI-1, helianorphin 1-4 and 19) or RP-UPLC (helianorphin 5-18), automatic peak integration, bicyclic

Substance	final HPLC purity
c-CTASIPPICYGGFLR	100.0%
c-CTASIPPICYGGFR	98.3%
c-CTASIPPICffbrLRRIRPKLK	100.0%
c-CTASIPPICffbrLRRIRpKLK	100.0%
c-CTASIPPICffbrR	100.0%
c-CTASIPPICfflkR	93.5%
c-CTYGGFPICFPDGR	99.5%
c-CYGGFLRRICFPDGR	99.9%

Reference: PMC8273886 (Journal of Medicinal Chemistry, 2021)
